Measurements reported in publication PMC10398660.
Where a chain is given by its changes, count along the chain named. These are yes or no findings as the source states them, for the method shown. In cells and extracts the contact can be indirect. Some results given as binding are weak or reduced against the parent protein; the word gives no strength. Tags and fused reporters may be left off the sequences shown.

Sequences of proteins named here, by UniProt entry; tags and fusion partners are left off.
UniProt O43765: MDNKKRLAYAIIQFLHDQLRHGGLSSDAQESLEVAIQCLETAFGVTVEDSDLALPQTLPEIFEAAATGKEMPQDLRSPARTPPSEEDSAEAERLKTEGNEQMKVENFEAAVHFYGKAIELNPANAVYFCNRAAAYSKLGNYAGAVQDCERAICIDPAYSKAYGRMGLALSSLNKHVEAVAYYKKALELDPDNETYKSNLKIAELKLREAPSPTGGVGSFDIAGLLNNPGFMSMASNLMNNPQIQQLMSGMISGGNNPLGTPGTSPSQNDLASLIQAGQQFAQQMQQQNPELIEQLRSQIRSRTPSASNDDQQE
UniProt Q7L5D6: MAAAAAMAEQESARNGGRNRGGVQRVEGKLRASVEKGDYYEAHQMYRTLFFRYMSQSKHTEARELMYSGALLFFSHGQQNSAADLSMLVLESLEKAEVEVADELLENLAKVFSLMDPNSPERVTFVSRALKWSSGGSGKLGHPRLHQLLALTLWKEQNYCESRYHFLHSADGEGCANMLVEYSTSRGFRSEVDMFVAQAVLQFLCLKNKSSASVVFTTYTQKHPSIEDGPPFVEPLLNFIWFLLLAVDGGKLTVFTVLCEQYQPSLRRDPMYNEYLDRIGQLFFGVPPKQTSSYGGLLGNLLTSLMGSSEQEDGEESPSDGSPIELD
UniProt P46379: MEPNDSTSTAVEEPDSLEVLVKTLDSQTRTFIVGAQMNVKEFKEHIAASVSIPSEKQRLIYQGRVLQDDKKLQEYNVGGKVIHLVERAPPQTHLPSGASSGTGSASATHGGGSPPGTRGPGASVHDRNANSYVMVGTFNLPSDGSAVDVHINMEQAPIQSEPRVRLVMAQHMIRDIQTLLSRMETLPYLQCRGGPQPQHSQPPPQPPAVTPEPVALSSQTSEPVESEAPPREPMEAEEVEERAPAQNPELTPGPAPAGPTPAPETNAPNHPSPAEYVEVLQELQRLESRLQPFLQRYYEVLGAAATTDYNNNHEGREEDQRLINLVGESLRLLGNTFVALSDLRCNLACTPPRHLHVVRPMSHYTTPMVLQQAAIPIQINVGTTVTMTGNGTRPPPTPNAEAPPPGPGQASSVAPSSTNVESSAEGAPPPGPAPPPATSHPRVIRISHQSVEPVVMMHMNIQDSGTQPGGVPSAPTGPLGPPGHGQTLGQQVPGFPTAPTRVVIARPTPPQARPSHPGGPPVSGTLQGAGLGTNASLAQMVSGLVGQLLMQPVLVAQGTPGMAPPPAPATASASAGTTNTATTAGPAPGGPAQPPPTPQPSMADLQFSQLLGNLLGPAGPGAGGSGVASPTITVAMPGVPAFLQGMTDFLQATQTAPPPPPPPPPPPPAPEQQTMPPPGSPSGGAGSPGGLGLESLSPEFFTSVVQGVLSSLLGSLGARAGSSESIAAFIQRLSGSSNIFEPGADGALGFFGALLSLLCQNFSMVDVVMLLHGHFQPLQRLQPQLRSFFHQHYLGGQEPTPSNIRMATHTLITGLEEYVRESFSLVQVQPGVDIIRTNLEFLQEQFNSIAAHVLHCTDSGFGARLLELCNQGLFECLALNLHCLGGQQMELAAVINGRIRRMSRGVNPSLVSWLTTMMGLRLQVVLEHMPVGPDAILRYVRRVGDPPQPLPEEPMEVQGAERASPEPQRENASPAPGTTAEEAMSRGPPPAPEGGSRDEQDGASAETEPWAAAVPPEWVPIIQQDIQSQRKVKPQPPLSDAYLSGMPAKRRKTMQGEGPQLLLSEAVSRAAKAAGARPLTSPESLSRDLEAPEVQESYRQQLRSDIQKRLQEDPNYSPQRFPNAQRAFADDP
UniProt O95071: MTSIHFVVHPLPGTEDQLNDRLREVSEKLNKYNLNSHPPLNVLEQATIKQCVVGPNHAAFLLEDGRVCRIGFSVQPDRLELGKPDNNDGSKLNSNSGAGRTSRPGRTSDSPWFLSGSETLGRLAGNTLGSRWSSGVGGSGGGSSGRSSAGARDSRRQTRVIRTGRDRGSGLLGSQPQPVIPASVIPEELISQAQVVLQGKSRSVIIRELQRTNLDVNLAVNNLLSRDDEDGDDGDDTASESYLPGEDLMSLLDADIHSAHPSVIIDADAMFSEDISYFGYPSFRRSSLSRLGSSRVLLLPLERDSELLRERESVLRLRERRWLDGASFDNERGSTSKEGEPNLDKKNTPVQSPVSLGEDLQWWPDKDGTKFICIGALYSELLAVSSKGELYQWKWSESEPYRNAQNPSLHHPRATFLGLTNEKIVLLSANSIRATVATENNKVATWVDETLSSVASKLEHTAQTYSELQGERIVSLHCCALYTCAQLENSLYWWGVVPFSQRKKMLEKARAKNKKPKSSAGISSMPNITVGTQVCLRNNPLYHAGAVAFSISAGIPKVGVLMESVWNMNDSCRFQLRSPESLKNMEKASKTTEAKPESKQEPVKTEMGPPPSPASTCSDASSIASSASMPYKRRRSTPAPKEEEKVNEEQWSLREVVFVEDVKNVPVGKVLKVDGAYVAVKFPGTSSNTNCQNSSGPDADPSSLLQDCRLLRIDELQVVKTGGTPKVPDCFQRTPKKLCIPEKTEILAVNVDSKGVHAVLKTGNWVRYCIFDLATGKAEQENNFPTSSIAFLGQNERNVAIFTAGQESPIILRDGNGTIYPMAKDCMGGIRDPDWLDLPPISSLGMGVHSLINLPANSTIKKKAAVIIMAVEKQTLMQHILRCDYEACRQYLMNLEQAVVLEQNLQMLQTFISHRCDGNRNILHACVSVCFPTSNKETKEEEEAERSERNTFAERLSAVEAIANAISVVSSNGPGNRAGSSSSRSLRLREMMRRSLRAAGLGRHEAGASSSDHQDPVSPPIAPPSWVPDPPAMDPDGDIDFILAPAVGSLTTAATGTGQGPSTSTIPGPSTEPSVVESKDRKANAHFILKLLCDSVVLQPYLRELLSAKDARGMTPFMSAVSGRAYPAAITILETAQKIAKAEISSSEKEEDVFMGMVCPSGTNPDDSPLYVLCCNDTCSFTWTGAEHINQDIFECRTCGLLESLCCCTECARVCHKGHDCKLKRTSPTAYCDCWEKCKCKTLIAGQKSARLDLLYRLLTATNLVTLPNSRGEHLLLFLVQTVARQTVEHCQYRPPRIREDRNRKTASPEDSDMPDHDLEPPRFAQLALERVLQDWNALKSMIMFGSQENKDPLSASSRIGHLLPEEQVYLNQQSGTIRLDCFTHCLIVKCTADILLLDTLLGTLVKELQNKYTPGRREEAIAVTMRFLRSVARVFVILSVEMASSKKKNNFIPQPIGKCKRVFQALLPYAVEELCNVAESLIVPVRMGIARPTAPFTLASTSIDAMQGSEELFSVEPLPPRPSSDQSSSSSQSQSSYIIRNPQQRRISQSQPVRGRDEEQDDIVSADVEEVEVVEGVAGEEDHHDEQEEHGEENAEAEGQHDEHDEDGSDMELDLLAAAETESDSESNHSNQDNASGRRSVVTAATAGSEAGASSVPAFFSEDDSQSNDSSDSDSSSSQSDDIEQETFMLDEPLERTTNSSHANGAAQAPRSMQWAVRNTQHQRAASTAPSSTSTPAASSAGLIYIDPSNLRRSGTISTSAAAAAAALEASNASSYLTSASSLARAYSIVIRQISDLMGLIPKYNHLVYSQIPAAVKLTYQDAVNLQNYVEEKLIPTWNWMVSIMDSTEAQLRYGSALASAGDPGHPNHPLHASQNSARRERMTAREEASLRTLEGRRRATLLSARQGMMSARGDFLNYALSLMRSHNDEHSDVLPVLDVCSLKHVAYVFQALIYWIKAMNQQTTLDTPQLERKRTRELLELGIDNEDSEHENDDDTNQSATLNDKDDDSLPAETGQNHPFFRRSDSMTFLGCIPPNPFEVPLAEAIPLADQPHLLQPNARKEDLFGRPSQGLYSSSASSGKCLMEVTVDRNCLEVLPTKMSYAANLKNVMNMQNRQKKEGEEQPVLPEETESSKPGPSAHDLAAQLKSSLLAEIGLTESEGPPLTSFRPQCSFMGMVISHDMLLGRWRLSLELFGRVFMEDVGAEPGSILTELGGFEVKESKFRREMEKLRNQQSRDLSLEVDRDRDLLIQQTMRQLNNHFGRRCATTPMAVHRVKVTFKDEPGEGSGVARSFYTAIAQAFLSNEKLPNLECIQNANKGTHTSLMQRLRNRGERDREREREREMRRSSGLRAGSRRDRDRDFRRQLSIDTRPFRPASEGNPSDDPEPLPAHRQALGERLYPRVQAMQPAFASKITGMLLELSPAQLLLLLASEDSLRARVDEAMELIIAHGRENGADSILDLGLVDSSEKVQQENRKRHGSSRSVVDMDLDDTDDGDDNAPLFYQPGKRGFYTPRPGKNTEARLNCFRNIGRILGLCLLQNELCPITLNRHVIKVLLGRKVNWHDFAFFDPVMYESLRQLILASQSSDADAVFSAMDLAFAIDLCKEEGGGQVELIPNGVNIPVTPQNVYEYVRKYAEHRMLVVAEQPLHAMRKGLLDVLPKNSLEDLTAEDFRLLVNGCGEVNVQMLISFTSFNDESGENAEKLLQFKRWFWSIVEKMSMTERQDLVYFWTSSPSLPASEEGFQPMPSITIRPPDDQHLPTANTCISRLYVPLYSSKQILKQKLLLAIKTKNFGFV

Columns and labels:
[1] = molecular target: T1, C9orf72-HA (C-terminal HA-tagged C9orf72) (UniProt Q96LT7); test: co-IP; HA-IP (anti-HA beads, overnight, 4°C, MCLB buffer) from C9orf72-HA expressing parental and SMCR8 KO 293T cells treated with DMSO or Btz; immunoblot
T1 sequence: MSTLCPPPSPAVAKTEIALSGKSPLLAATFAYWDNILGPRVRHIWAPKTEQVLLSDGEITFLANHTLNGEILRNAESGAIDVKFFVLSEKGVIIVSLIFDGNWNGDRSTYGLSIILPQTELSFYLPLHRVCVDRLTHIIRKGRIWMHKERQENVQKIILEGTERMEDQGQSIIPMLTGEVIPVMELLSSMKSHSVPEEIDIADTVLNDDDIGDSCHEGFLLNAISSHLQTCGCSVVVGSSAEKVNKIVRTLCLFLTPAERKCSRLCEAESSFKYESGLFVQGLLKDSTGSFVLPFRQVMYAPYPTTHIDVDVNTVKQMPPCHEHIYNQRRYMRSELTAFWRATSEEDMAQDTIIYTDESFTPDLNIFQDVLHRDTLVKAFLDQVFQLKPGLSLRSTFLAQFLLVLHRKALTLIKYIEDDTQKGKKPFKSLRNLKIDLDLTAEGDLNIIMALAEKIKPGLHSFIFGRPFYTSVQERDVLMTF

[2] = molecular target: T1, C9orf72-HA (C-terminal HA-tagged C9orf72); test: co-IP; HA-IP under mild conditions (MCLB buffer) from Btz-treated C9orf72-HA SMCR8 KO cells; beads treated or not with the catalytic domain of USP2 (500 nM, 1 h, 30°C); immunoblot
[3] = molecular target: T2, GFP-C9orf72 mutant K156R, K388R, K414R, K422R (KR4) (UniProt Q96LT7); test: pull-down; Streptavidin agarose loaded with biotinylated GFP VHH nanobodies, incubated with 293T lysates in MCLB buffer overnight at 4°C; cells treated with DMSO or Btz; immunoblot
T2 sequence: T1 sequence with K156R, K388R, K414R, K422R

[4] = molecular target: T3, GFP-C9orf72 wild-type (WT) (UniProt Q96LT7); test: as above
T3 sequence: T1 sequence

GFP-SMCR8 = molecular target: T4, GFP-SMCR8 (UniProt Q8TEV9); test: as above
T4 sequence: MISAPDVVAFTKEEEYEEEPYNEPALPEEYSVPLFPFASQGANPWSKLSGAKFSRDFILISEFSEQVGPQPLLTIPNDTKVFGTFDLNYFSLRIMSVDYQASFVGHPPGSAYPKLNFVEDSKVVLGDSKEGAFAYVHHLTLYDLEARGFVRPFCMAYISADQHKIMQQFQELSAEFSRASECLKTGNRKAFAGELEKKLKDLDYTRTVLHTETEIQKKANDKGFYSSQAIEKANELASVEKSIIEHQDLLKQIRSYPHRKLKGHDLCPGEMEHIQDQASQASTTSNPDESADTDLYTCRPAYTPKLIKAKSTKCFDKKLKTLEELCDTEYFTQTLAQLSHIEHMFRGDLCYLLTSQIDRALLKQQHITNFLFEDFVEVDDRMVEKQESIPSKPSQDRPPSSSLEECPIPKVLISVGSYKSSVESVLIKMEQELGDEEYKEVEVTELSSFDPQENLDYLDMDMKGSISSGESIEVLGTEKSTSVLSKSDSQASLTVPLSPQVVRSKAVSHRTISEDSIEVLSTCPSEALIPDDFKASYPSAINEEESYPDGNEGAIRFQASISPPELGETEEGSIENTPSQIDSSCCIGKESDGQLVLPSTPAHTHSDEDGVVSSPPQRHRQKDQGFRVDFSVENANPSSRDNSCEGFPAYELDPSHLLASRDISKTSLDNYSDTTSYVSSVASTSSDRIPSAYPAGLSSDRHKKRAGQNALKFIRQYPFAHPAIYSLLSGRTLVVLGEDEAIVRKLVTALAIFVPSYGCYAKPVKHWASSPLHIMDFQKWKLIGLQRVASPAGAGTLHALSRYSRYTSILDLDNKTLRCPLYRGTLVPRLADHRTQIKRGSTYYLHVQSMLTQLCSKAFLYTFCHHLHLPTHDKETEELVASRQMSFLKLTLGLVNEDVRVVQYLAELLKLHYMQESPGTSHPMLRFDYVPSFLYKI

Substance	binding [1]	binding [2]	binding [3]	binding [4]	binding (GFP-SMCR8)
SGTA, endogenous (from UniProt O43765 1-313)	binds	–	–	–	–
GET4, endogenous (from UniProt Q7L5D6 1-327)	binds	–	–	–	–
BAG6, endogenous (from UniProt P46379 1-1132)	binds	binds	binds	binds	binds
PSMC4 (proteasomal subunit), endogenous (from UniProt P43686 1-418)	binds	–	–	–	–
UBR5 (E3 ligase), endogenous (from UniProt O95071 1-2799) (enzyme)	binds	binds	binds	binds	binds
